Consider 3 molecules from US20030007956A1.

The chains behind the UniProt entries cited, without tags or fusion partners. Where a name states a change or a piece, a line headed by the entry shows the natural chain unless it says otherwise. A line that says so, or that is headed by a name, gives the form on record, which may keep a tag or linker.
HA-βTrCP (Q9Y297, form named): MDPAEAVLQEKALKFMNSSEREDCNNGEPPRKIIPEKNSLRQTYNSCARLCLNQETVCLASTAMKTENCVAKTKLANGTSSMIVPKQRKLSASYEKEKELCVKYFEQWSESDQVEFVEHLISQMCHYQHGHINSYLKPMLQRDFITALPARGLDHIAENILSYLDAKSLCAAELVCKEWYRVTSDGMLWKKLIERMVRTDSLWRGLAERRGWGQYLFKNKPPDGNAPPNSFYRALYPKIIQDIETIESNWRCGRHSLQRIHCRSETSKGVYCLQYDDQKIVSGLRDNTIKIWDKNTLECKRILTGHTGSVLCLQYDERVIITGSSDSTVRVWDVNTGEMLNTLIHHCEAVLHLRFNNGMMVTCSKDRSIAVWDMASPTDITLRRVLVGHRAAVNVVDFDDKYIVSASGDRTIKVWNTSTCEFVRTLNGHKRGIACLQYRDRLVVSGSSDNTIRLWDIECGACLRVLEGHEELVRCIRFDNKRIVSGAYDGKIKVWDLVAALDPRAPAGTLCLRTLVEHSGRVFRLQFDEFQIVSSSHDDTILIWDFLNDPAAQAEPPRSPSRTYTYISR

Assay [1] addresses T1, Myc-RasSF1A (human) (UniProt Q9NS23).
T1 sequence (looked up): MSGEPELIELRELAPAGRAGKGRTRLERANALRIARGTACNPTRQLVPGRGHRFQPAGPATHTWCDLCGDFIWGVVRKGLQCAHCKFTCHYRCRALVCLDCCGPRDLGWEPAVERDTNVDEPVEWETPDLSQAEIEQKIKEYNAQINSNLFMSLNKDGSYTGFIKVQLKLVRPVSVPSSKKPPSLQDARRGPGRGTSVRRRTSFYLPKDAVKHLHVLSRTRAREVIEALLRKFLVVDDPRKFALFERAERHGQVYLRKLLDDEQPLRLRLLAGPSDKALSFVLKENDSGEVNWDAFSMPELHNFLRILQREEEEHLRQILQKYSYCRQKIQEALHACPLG
The experiment in a line: co-immunoprecipitation with anti-myc, SDS gels of 35S-labelled proteins.

The target of assay [2] is T1, Myc-RasSF1A (human). The assay is described as follows: co-immunoprecipitation with anti-myc 9E10 from 35S-labelled HeLa cells, SDS PAGE and autoradiography.
Assay [3] concerns the target T1, Myc-RasSF1A (human). The experiment in a line: co-immunoprecipitation with anti-myc 9E10 from 35S-labelled HeLa cells.
Assay [4] concerns the target HA-βTrCP (human) (UniProt Q9Y297). The assay is described as follows: co-immunoprecipitation with anti-HA 3F10 from co-transfected 293 cells, anti-myc Western blot.
The target is the same in assay [5]. The assay is described as follows: co-immunoprecipitation from 293 cells, Western blot. On the technique in general: A western blot detects proteins with antibodies after separation by electrophoresis.

No constants are given. Whether binding was seen depends on the method and setting. In cells and extracts the contact can be indirect. Some binding calls cover weakened binding; strength is not graded here. Sequences can lack the tags named with a protein.

For the molecule HA-βTrCP (from UniProt Q9Y297 1-569), the binding entry with Myc-RasSF1A (human) [1], with Myc-RasSF1A (human) [2] and in the assay with Myc-RasSF1A (human) [3] was “binds” each time.

B1: Myc-RasSF1C (protein, human, UniProt Q9NS23-4 1-270, looked up, not shown: small tags and cut ends)
chain: MGEAEAPSFEMTWSSTTSSGYCSQEDSDSELEQYFTARTSLARRPRRDQDEPVEWETPDLSQAEIEQKIKEYNAQINSNLFMSLNKDGSYTGFIKVQLKLVRPVSVPSSKKPPSLQDARRGPGRGTSVRRRTSFYLPKDAVKHLHVLSRTRAREVIEALLRKFLVVDDPRKFALFERAERHGQVYLRKLLDDEQPLRLRLLAGPSDKALSFVLKENDSGEVNWDAFSMPELHNFLRILQREEEEHLRQILQKYSYCRQKIQEALHACPLG
With B1, the binding entry with HA-βTrCP (human) [4] and with HA-βTrCP (human) [5] was “binds” each time.

B2: Myc-RasSF1A (protein, human, UniProt Q9NS23-2 1-340, looked up, not shown: small tags and cut ends)
chain: MSGEPELIELRELAPAGRAGKGRTRLERANALRIARGTACNPTRQLVPGRGHRFQPAGPATHTWCDLCGDFIWGVVRKGLQCAHCKFTCHYRCRALVCLDCCGPRDLGWEPAVERDTNVDEPVEWETPDLSQAEIEQKIKEYNAQINSNLFMSLNKDGSYTGFIKVQLKLVRPVSVPSSKKPPSLQDARRGPGRGTSVRRRTSFYLPKDAVKHLHVLSRTRAREVIEALLRKFLVVDDPRKFALFERAERHGQVYLRKLLDDEQPLRLRLLAGPSDKALSFVLKENDSGEVNWDAFSMPELHNFLRILQREEEEHLRQILQKYSYCRQKIQEALHACPLG
For B2, the binding entry with HA-βTrCP (human) [4] and in the assay with HA-βTrCP (human) [5] was “binds” throughout.
